The values below come from PMC7862700.

Sequences of proteins named here, by UniProt entry; tags and fusion partners are left off. A change or cut given only in a name is not applied to a line headed by its entry.
UniProt Q01892: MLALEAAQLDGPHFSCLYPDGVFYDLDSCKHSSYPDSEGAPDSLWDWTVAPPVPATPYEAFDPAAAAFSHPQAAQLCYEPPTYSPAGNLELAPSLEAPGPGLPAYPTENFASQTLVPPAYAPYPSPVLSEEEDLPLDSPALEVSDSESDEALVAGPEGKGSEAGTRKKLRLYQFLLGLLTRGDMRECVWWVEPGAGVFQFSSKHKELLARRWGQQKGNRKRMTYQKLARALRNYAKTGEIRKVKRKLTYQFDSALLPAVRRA
UniProt P41161: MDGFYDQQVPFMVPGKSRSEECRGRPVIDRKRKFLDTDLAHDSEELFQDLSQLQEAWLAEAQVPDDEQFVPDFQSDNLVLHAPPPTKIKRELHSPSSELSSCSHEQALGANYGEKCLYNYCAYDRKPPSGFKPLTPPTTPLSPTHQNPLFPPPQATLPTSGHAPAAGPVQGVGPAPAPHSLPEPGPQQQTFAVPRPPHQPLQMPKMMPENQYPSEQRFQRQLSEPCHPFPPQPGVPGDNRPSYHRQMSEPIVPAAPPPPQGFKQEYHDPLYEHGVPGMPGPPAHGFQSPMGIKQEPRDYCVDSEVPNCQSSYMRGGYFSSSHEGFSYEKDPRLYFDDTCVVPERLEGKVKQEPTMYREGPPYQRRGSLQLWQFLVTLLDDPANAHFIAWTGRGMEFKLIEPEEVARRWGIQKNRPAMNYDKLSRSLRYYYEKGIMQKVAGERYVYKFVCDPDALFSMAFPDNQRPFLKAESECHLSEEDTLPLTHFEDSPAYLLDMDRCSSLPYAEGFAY
UniProt Q99607: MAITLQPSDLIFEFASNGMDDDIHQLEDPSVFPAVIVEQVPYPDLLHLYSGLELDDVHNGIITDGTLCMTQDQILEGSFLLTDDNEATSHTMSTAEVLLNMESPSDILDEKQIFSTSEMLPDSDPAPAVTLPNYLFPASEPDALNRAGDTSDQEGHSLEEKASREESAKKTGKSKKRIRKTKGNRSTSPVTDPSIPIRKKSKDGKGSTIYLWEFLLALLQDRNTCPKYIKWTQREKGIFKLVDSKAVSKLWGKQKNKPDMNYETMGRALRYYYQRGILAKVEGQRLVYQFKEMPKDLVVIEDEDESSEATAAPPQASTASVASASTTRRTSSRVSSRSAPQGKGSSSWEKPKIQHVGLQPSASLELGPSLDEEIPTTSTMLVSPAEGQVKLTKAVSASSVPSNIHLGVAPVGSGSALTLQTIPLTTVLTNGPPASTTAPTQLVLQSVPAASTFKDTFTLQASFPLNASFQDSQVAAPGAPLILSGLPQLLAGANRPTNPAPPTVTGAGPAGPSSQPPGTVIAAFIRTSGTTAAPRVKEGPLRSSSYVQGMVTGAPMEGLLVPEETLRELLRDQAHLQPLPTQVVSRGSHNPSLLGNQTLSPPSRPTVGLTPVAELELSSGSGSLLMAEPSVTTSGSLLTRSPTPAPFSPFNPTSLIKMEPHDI

Only a part is listed here, and it is no random draw. At the low end of the ranking the order means little.

Some targets named below: SPIB (UniProt Q01892); ETV5 (UniProt P41161); ELF4 (UniProt Q99607).
Common to all, as to experiment: DAPPL (digital affinity profiling via proximity ligation, sequencing)
Settings in all cases: 10 mM Tris-HCl pH 7.5, 50 mM NaCl, 1 mM DTT, 4% glycerol, room temperature, 30 min; GST-TFs on glutathione beads, 16-mer random dsDNA library, 0.1% …; high values mean tight binding; double strand, one strand shown; scale: fold enrichment (6-mer frequency, TF over GST control)

For a further assay, the target named is T1, FLI1 (UniProt Q01543).
T1 sequence: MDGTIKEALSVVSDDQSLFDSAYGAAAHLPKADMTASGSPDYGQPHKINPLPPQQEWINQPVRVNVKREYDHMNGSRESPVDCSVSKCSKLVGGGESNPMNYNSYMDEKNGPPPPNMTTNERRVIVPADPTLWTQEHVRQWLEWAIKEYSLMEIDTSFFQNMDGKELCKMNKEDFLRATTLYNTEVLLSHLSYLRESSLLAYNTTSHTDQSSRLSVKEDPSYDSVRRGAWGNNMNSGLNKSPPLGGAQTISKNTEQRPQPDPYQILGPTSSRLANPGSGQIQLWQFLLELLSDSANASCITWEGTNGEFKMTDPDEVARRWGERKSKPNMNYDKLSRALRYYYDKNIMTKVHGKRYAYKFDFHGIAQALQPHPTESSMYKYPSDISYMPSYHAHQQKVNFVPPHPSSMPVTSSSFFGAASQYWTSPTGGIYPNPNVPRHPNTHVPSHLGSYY

A further assay deals with T2, EHF (UniProt Q9NZC4).
T2 sequence: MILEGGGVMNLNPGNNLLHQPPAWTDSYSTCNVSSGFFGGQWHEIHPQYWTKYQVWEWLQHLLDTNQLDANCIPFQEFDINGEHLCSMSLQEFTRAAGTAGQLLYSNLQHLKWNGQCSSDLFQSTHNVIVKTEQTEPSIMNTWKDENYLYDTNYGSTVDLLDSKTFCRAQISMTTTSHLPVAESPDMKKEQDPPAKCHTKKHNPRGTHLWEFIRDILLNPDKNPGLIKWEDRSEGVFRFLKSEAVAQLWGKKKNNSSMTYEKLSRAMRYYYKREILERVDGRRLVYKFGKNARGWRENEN

Another assay addresses T3, ETV2 (UniProt O00321).
T3 sequence: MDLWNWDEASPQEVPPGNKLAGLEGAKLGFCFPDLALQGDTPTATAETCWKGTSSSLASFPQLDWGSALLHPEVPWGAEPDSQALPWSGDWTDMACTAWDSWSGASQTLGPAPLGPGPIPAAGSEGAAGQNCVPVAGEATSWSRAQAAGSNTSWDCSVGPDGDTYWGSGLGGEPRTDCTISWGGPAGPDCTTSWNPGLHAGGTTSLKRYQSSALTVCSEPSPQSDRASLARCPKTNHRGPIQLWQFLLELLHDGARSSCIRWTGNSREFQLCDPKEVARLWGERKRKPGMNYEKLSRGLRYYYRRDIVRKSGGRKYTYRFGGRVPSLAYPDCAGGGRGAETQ

The next assay deals with T4, ETV3L (UniProt Q6ZN32).
T4 sequence: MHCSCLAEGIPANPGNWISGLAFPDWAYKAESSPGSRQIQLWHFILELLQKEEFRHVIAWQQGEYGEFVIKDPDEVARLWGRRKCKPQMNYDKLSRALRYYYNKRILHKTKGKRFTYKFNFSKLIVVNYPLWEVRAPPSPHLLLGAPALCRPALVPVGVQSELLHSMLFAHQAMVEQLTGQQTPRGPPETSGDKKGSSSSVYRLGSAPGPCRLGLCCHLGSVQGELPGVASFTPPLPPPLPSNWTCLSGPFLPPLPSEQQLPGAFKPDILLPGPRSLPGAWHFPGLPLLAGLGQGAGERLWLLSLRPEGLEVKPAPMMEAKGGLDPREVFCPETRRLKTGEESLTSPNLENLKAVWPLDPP

As for GAGTCT, the binding signal worked out at 0.417 in the assay with FLI1; 0.433 with EHF; 0.356 with SPIB; 0.376 in the assay with ETV5; 0.393 in the assay with ELF4; 0.396 with ETV2. The binding signal with ETV3L was 0.433.
On to AGCCGC, for which the binding signal in the assay with FLI1 was determined as 0.93; with EHF it was 0.922; in the assay with SPIB, 0.761; with ETV5 it was 0.789; with ELF4, 0.925; with ETV2, 0.777. Also, the binding signal with ETV3L was found to be 0.87.
With GTCGTC, the binding signal with FLI1 was found to be 0.758; with EHF, 0.712; with SPIB, 0.777; in the assay with ETV5, 0.76; in the assay with ELF4, 0.729; with ETV2 it was 0.823. Moreover, in the assay with ETV3L, the binding signal is 0.708.
For the sequence GCGGCG, the binding signal is 0.713 with FLI1; 0.738 with EHF; 0.74 with SPIB; 0.755 with ETV5; 0.789 in the assay with ELF4; 0.72 in the assay with ETV2. The sequence further yielded a binding signal with ETV3L of 0.782.
On to GGTAGG, for which the binding signal was determined as 0.604 in the assay with FLI1; 0.627 with EHF; 0.697 in the assay with SPIB; 0.624 with ETV5; 0.626 with ELF4; 0.717 with ETV2. This sequence gave a binding signal with ETV3L of 0.639.
Regarding AGACGC, the binding signal in the assay with FLI1 turned out to be 0.708; in the assay with EHF, 0.662; with SPIB, 0.641; in the assay with ETV5 it was 0.679; in the assay with ELF4 it was 0.705; in the assay with ETV2, 0.693. In addition, the binding signal in the assay with ETV3L stood at 0.717.
Consider AGACGT, for which the binding signal with FLI1 is 0.487; with EHF, 0.446; with SPIB, 0.421; with ETV5, 0.462; with ELF4, 0.464; in the assay with ETV2, 0.418. In the assay with ETV3L, the binding signal was 0.425.
Regarding AGTCAC, the binding signal came to 0.788 with FLI1; 0.773 with EHF; 0.731 in the assay with SPIB; 0.78 with ETV5; 0.752 in the assay with ELF4; 0.706 with ETV2. In addition, the binding signal with ETV3L amounted to 0.777.
As to GTGTGT, the binding signal in the assay with FLI1 was 0.581; in the assay with EHF, 0.529; in the assay with SPIB, 0.541; with ETV5 it was 0.579; in the assay with ELF4, 0.503; in the assay with ETV2, 0.544. The binding signal in the assay with ETV3L was found to be 0.518.
For the sequence GTCAAT, the binding signal was found to be 0.803 in the assay with FLI1; 0.823 with EHF; 0.866 in the assay with SPIB; 0.795 in the assay with ETV5; 0.836 in the assay with ELF4; 0.862 with ETV2. Further, in the assay with ETV3L, the binding signal is 0.868.
CGGCGC: the binding signal with FLI1 stood at 0.618; with EHF it was 0.616; with SPIB, 0.649; in the assay with ETV5, 0.547; in the assay with ELF4, 0.651; in the assay with ETV2, 0.597. In the assay with ETV3L, this sequence gave a binding signal of 0.695.
Consider CGGGTC, for which the binding signal in the assay with FLI1 was 0.644; with EHF, 0.743; with SPIB, 0.682; with ETV5, 0.712; with ELF4 it was 0.713; with ETV2 it was 0.71. The sequence further gave a binding signal with ETV3L of 0.706.
For the sequence GAACGT, the binding signal was determined as 0.38 with FLI1; 0.43 with EHF; 0.392 in the assay with SPIB; 0.422 with ETV5; 0.42 in the assay with ELF4; 0.38 with ETV2. Moreover, the binding signal with ETV3L is 0.402.
With CAGACA, the binding signal in the assay with FLI1 came out at 0.766; with EHF, 0.764; with SPIB, 0.791; with ETV5, 0.776; with ELF4, 0.859; in the assay with ETV2, 0.753. Besides, in the assay with ETV3L, the binding signal amounted to 0.857.
For CCGAGT, the binding signal with FLI1 was 0.912; with EHF, 0.912; in the assay with SPIB it was 0.897; with ETV5, 0.916; in the assay with ELF4 it was 0.95; in the assay with ETV2, 0.981. The sequence further gave a binding signal with ETV3L of 0.949.
Consider CCCAGC, for which the binding signal in the assay with FLI1 was 0.892; with EHF, 0.91; with SPIB, 0.907; with ETV5 it was 0.802; with ELF4, 0.907; in the assay with ETV2 it was 0.999. Also, the binding signal in the assay with ETV3L turned out to be 0.923.
In the case of AGGCGT, the binding signal in the assay with FLI1 was found to be 0.514; with EHF it was 0.449; in the assay with SPIB, 0.498; in the assay with ETV5 it was 0.512; with ELF4, 0.469; with ETV2 it was 0.488. In addition, the binding signal with ETV3L was found to be 0.503.
TCCGTG: the binding signal with FLI1 is 0.522; with EHF, 0.543; in the assay with SPIB, 0.536; in the assay with ETV5, 0.553; in the assay with ELF4, 0.475; with ETV2, 0.516. Besides, in the assay with ETV3L, the binding signal is 0.455.
For the sequence ATCGGA, the binding signal with FLI1 is 0.43; in the assay with EHF, 0.413; with SPIB, 0.451; with ETV5, 0.43; with ELF4, 0.421; in the assay with ETV2 it was 0.411. Further, the binding signal with ETV3L stood at 0.453.
